This note sets out measurements from paper doi:10.1101/2021.07.21.452842.

The chains behind the UniProt entries cited, without tags or fusion partners. Where a name states a change or a piece, a line headed by the entry shows the natural chain unless it says otherwise. A line that says so, or that is headed by a name, gives the form on record, which may keep a tag or linker.
mycBirA-tagged full-length GIV (Q3V6T2, form named): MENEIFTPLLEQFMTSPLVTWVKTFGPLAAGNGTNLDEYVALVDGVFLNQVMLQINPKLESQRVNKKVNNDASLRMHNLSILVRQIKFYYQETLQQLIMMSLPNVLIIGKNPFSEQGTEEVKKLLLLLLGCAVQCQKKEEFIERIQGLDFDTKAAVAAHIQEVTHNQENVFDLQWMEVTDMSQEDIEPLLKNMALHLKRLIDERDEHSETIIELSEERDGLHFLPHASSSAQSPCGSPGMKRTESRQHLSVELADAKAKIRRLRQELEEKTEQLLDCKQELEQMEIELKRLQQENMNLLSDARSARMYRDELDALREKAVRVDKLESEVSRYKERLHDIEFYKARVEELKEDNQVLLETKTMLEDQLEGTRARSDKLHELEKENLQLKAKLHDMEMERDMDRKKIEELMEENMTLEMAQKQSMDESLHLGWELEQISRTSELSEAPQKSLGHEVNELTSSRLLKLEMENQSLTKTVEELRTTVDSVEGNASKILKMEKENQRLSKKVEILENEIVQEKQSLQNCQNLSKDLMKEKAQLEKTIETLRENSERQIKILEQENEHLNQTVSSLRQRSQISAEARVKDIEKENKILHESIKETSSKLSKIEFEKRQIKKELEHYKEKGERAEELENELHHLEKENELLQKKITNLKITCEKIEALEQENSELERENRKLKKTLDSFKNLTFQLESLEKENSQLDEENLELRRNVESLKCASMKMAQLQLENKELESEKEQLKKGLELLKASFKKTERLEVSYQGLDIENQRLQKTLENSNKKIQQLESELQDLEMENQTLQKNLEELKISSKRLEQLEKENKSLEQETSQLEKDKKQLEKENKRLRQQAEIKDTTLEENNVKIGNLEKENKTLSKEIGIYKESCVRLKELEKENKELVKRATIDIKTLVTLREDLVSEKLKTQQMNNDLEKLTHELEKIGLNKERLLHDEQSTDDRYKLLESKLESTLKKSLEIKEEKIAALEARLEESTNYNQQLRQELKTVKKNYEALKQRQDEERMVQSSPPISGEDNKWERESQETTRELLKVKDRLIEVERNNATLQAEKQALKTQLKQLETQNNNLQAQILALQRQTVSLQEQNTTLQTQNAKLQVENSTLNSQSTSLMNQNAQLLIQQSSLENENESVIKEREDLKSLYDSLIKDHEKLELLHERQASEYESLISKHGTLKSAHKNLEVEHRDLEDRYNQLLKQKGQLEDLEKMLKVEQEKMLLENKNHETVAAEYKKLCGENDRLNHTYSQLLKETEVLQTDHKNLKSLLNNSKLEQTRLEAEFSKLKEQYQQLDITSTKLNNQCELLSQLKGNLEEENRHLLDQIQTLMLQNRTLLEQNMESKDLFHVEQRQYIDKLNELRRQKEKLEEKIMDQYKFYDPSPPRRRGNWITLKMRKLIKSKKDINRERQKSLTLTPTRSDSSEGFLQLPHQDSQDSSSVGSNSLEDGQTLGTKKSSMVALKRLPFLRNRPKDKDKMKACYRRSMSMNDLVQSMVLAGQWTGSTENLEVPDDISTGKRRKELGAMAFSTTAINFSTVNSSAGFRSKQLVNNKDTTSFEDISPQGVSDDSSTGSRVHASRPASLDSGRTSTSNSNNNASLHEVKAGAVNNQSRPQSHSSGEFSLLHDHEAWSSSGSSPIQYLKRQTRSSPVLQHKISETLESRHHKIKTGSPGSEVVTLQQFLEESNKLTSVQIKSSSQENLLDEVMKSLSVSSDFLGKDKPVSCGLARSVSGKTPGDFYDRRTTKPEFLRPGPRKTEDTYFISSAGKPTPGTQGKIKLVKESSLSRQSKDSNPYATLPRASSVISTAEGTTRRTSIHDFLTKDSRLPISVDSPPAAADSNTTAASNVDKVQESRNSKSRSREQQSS
UniProt Q13535: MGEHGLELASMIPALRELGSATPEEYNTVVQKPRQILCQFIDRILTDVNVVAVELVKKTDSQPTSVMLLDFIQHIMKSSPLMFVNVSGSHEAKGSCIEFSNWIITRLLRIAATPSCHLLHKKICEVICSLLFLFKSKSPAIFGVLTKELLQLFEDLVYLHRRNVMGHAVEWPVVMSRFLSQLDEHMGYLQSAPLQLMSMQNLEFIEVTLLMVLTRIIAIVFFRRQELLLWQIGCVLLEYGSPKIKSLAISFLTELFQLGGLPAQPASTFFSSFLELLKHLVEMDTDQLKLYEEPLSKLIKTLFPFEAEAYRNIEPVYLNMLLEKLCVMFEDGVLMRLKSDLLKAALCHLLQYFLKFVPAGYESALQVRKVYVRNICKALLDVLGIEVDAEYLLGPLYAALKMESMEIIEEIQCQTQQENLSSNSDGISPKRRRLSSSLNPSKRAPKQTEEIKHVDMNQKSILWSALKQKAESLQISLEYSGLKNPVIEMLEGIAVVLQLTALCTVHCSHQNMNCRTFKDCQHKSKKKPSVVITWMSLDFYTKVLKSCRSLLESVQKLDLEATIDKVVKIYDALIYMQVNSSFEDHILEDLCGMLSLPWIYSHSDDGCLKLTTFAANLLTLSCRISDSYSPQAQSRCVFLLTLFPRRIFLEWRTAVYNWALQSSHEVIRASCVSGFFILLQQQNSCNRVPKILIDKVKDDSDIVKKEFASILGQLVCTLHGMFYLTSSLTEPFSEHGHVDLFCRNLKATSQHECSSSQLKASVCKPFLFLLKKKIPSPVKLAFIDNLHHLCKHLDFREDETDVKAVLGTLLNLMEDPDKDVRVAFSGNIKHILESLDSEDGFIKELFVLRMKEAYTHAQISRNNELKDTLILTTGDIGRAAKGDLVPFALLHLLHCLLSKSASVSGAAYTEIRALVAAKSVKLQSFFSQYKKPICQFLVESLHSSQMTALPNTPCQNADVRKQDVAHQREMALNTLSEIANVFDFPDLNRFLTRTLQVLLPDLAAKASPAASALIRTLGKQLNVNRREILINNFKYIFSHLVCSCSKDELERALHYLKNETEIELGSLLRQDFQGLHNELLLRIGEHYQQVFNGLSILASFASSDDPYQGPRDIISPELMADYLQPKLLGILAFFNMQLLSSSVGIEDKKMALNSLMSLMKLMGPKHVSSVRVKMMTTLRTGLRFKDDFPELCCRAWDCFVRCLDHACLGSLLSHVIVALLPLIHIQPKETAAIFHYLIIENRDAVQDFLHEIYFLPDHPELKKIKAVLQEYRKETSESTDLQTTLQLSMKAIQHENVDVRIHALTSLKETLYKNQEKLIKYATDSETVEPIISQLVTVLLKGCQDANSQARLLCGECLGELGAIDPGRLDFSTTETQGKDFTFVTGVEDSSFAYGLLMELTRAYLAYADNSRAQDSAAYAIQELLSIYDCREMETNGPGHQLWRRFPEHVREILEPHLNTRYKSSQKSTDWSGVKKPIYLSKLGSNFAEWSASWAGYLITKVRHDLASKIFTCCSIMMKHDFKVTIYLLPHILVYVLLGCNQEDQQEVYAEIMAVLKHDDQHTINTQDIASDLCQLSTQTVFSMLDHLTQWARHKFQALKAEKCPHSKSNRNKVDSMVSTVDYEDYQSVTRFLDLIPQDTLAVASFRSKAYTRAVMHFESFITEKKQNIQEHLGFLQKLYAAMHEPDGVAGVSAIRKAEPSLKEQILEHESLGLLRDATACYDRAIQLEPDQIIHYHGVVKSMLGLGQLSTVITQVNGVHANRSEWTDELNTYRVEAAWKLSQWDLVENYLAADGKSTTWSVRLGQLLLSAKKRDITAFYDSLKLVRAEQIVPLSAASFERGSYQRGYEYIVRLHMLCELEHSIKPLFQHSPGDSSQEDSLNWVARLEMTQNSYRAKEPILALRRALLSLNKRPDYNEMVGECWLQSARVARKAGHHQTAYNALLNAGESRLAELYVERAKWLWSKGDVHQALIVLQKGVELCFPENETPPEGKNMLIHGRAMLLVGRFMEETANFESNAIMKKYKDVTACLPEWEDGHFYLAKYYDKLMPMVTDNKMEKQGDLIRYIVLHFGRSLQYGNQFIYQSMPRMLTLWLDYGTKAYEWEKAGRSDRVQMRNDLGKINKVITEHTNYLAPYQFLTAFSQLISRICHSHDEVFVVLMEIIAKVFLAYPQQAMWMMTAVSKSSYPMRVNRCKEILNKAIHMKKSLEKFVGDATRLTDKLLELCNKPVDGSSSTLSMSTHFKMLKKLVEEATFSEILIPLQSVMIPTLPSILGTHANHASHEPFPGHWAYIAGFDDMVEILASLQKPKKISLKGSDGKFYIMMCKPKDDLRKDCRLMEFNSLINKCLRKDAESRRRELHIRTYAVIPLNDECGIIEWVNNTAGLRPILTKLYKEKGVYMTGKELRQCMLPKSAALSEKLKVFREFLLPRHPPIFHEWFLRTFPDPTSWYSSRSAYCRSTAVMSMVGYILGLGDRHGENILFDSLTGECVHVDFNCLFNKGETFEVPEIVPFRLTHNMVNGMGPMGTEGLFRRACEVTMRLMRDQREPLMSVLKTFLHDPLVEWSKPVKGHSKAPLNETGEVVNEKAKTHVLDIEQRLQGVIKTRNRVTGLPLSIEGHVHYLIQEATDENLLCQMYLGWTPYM

Results are given in words; binding and its absence hold for the method and conditions named. Binding seen in cells or lysates may run through a third protein. A yes stands for co-enrichment or nearness to the bait. Other partners may have been found.

The assay deals with mycBirA-tagged full-length GIV (UniProt Q3V6T2). In words: proximity labelling.

For the substance “Ataxia telangiectasia and Rad3 related protein (ATR), endogenous (from UniProt Q13535 1-2644)”, the binding result is given as “binds”.
